Reference: PubChem BioAssay AID2685 (National Center for Advancing Translational Sciences (NCATS), 2010)
The other results are listed elsewhere or left out. These are further read-outs of the screen, such as a control signal, another cell line or another target. No call is given for them. The list favours compounds with an active or inconclusive main result. The note in brackets gives the kind of curve behind each potency; many fits are weak.

Assay: qHTS Assay for Lipid Storage Modulators in Drosophila S3 Cells;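 as to cell number change: cells counted by Cell Tracker Red CMTPX staining in the red channel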
Conditions: BODIPY lipid droplet fluorescence, 18-24 h
Outline: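 Drosophila S3 cells loaded with oleic acid (400 uM, as added) and compounds at several concentrations; lipid droplets imaged by 488-nm laser-scanning cytometry, 500–530 nm intensity and object ratio to cell channel. Percent activity normalized to 20 uM Triacsin C.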

Q: With `Cc1ccccc1N/N=C/c1sc(=O)n(Cc2cccc(C(=O)O)c2)c1Cl` as the molecule, how does the cell number change (measured here: cell count max response, cells fed with added oleic acid) read?
A: 10%

Q: What about the AC50 (measured here: lipid fluorescence (Fed channel) AC50, cells fed with added oleic acid) of the same molecule?
A: 6.51 µM [rising, single point]
